{
  "source": "PubChem BioAssay AID1347076",
  "about": "(National Center for Advancing Translational Sciences (NCATS), 2019)",
  "note": "The whole screen tested about 400,000 compounds, of which about 13,000 (3.2%) were called active. Inconclusive results, whose numbers are uncertain, are shown with a selection of clear calls. The call rests on the fitted dose curve; in most records, active means well fitted cell-killing curve with a large enough effect; inconclusive means small, poorly fitted or top-dose-only effect, or effect the other way; inactive means flat fitted curve, though single readings scatter. Potencies beside an inconclusive call are fits to weak or partial responses and may not hold up. On the % scale 0 is the no-effect control and ±100 the full control effect; potency means the concentration at half of the fitted maximal effect.",
  "data": [
    {"test": "qHTS assay for MDR1-selective chemotherapeutics: Primary screen using the drug-selected MDR subline cells KB-V1; further: nearly all actives have a fitted effect of over 60% in size", "conditions": "KB-V1 MDR cells viability, CellTiter-Glo, 72 h; activity change, negative = cytotoxicity: at 46.1 µM (top of the series)", "summary_of_the_method": "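Cells of the MDR subline KB-V1 are plated, dosed with compound at multiple concentrations, and incubated 72 h at 37 degrees C; CellTiter-Glo is then added and luminescence read after 10 min.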", "values": [
      {"smiles": "CC(=O)Nc1ccc(S(=O)(=O)Oc2ccc(N3C(=O)C4CCCCC4C3=O)cc2)cc1", "note": "(stereo not drawn)", "Potency": "active: 18.4 µM"},
      {"smiles": "COC(=O)c1ccc(CO/N=C(\\NC(C)=O)c2nonc2NC(C)=O)cc1", "Potency": "inactive"},
      {"smiles": "COC(=O)c1ccccc1NC(=O)C1CCCC1", "activity change, negative = cytotoxicity": "inconclusive: -35.6%"},
      {"smiles": "O=C(OCc1cc(=O)n2nc(-c3cccs3)sc2n1)c1cccc(F)c1", "Potency": "inactive"},
      {"smiles": "CC(C)Cc1nc(Nc2ccccc2C#N)c2nnn(Cc3ccccc3)c2n1", "Potency": "inconclusive: 29.1 µM [cytotoxic, single point]"},
      {"smiles": "CCOC(=O)C1=C(COc2ccc(F)cc2Cl)NC(=O)NC1c1cc(C)ccc1C", "note": "(stereo not drawn)", "Potency": "inconclusive: 3.26 µM [cytotoxic, partial curve, poor fit]"},
      {"smiles": "CCN1CCN(c2nnc(-n3cccc3C(=O)NCc3ccccc3OC)s2)CC1", "Potency": "inactive"},
      {"smiles": "O=C(Cn1ncc2c3ccccc3n(Cc3ccccc3F)c2c1=O)N1CCCCCC1", "Potency": "inconclusive: 16.4 µM [cytotoxic, single point]"},
      {"smiles": "Cc1ccc(NC(=O)N2CC3CCCN3c3ccccc32)cc1Cl", "note": "(stereo not drawn)", "Potency": "inactive"},
      {"smiles": "Cc1cccc(NC(=O)Cn2ccn(-c3ccc4c(c3)OCCO4)c(=O)c2=O)c1", "Potency": "inconclusive: 14.6 µM [rising, partial curve, poor fit]"},
      {"smiles": "CCn1ccnc1CN1CCc2c([nH]c3ccccc23)C1CC(C)C", "note": "(stereo not drawn)", "Potency": "inconclusive: 20.6 µM [cytotoxic, partial curve, poor fit]"},
      {"smiles": "COC(=O)c1c(C)n(-c2ccccc2)c2ccc(O)cc12", "Potency": "active: 20.6 µM"},
      {"smiles": "CCCCn1nnnc1C(c1ccccc1)N1CCN(c2ccc(C(F)(F)F)cn2)CC1", "note": "(stereo not drawn)", "Potency": "inconclusive: 10.3 µM [cytotoxic, partial curve]"},
      {"smiles": "O=C(Nc1cccn(Cc2c(Cl)cccc2Cl)c1=O)c1ccc(Cl)cc1Cl", "Potency": "active: 16.4 µM"},
      {"smiles": "CCOC(=O)c1c(NC(N)=O)sc(C)c1C", "Potency": "inconclusive: 20.6 µM [cytotoxic, single point]"},
      {"smiles": "O=C(OCc1ccccc1)N1CCCC1/C=C/CN1CCOCC1", "note": "(stereo not drawn)", "Potency": "inconclusive: 20.6 µM [cytotoxic, single point]"},
      {"smiles": "O=C(Nc1nncs1)c1cccnc1Cl", "activity change, negative = cytotoxicity": "inconclusive: -21.3%"},
      {"smiles": "CCc1cc(/C(Cc2ccccn2)=N\\Nc2ccccc2)c(O)cc1O", "Potency": "inconclusive: 29.1 µM [cytotoxic, single point]"},
      {"smiles": "O=C(NCc1ccccc1)c1onc(CSc2ccccc2)c1C(=O)NCC1CC1", "Potency": "inconclusive: 29.1 µM [cytotoxic, single point]"},
      {"smiles": "COc1cc(CNC(=O)C2CCC(=O)N(C3CCCCCC3)C2)cc(OC)c1", "note": "(stereo not drawn)", "Potency": "inconclusive: 6.51 µM [cytotoxic, partial curve]"},
      {"smiles": "CC(C)c1ccc(N(CCc2ccccn2)C(=O)C(C)(C)C)cc1", "Potency": "inconclusive: 18.4 µM [cytotoxic, single point]"},
      {"smiles": "Cc1ccc(-c2nnn(CC(=O)N(c3cccc(F)c3)C(C(=O)NC(C)(C)C)c3ccco3)n2)o1", "note": "(stereo not drawn)", "Potency": "inconclusive: 25.9 µM [rising, single point]"},
      {"smiles": "CC(Sc1nc(-c2ccccc2)c(-c2ccccc2)[nH]1)C(=O)NCC1CCCO1", "note": "(stereo not drawn)", "Potency": "inconclusive: 20.6 µM [cytotoxic, single point]"},
      {"smiles": "O=c1c([N+](=O)[O-])c(O)c2ccccc2n1Cc1ccccc1", "Potency": "inactive"},
      {"smiles": "O=C(NCCc1csc(-c2cccc(F)c2)n1)C(=O)Nc1cc(F)ccc1F", "Potency": "inactive"},
      {"smiles": "O=C1c2ccccc2C(c2nnnn2Cc2ccccc2)N1Cc1cccc(F)c1", "note": "(stereo not drawn)", "Potency": "inconclusive: 18.4 µM [cytotoxic, partial curve, poor fit]"},
      {"smiles": "Cc1onc(-c2ccccc2)c1C(=O)Nc1cc(C(F)(F)F)ccc1N1CCOCC1", "Potency": "active: 5.17 µM"},
      {"smiles": "Cc1nc(C)c(C(=O)N/N=C/c2ccco2)s1", "Potency": "inconclusive: 29.1 µM [rising, single point]"},
      {"smiles": "Cc1cccc(NC(=O)CNC(=O)Cc2ccc3c(c2)OCCO3)c1C", "Potency": "inactive"},
      {"smiles": "O=C(NCCCN1CCOCC1)c1cc2c([nH]c3ccccc32)c(-c2cccc(Br)c2)n1", "Potency": "inconclusive: 25.9 µM [cytotoxic, single point]"},
      {"smiles": "Cc1cc(-n2c(C)cc(C(=O)COc3ccccc3[N+](=O)[O-])c2C)no1", "Potency": "inconclusive: 25.9 µM [cytotoxic, single point]"},
      {"smiles": "CCOc1ncccc1C(=O)Nc1cc(S(=O)(=O)N2CCOCC2)ccc1N1CCCC1", "Potency": "inconclusive: 1.3 µM [cytotoxic, full curve]"},
      {"smiles": "O=C(Nc1ccccc1C(=O)O)c1ccc(NC(=O)c2ccc(Br)o2)cc1", "Potency": "inconclusive: 7.94 µM [rising, partial curve, poor fit]"},
      {"smiles": "Cc1nc(C)n(CC(O)COc2ccc3c(c2)CCC3)n1", "note": "(stereo not drawn)", "Potency": "inactive"},
      {"smiles": "COc1ccc(Br)cc1/C=C/c1ccc2cccc(O)c2n1", "Potency": "inconclusive: 18.4 µM [cytotoxic, single point]"},
      {"smiles": "N#C/C(=C\\c1cccs1)C(=O)c1ccccc1Cl", "Potency": "inactive"},
      {"smiles": "O=[N+]([O-])c1cc(Br)c(O)c(/C=N/Nc2nnnn2-c2cccc3ccccc23)c1", "Potency": "inconclusive: 20.6 µM [cytotoxic, single point]"},
      {"smiles": "CC(Nc1cc(N2CCOCC2)ccc1[N+](=O)[O-])c1ccccc1", "note": "(stereo not drawn)", "Potency": "inconclusive: 5.17 µM [cytotoxic, full curve]"},
      {"smiles": "CC1CC(NC(=O)c2cc3c(=O)n4ccccc4nc3n2C)CC(C)(C)C1", "note": "(stereo not drawn)", "Potency": "inconclusive: 0.58 µM [cytotoxic, full curve]"},
      {"smiles": "COc1ccc(CCNC(=O)c2c(O)nc3ccccn3c2=O)cc1OC", "Potency": "active: 7.31 µM"},
      {"smiles": "CN(C)c1ccc(C(C(=O)NCC2CCCO2)N(C(=O)c2snc(C(N)=O)c2N)c2ccc3c(c2)OCO3)cc1", "note": "(stereo not drawn)", "Potency": "inactive"},
      {"smiles": "COC1(C)CC2C(CC1OC(=O)c1cc([N+](=O)[O-])cc([N+](=O)[O-])c1)C2(C)C", "note": "(stereo not drawn)", "Potency": "inconclusive: 29.1 µM [cytotoxic, single point]"},
      {"smiles": "O=[N+]([O-])c1ccc(CSc2nc3ncc(Br)cc3[nH]2)cc1", "Potency": "inactive"},
      {"smiles": "Cc1[nH][nH]c(=O)c1N=Nc1ccccc1Cl", "Potency": "inconclusive: 16.4 µM [cytotoxic, single point]"},
      {"smiles": "Cc1ccc(C(=O)Nc2nnc(S(=O)(=O)N(C)Cc3ccc(Cl)cc3)s2)cc1", "Potency": "inactive"},
      {"smiles": "COc1ccc(NC(=O)N2CCC(c3nc4ccccc4[nH]3)CC2)cc1", "Potency": "inactive"},
      {"smiles": "COC(=O)c1ccc(COC(=O)c2cccn2C)o1", "Potency": "inactive"},
      {"smiles": "O=C(Nc1c(C(=O)NCc2ccco2)cnn1-c1ccccc1)c1cccc(F)c1", "Potency": "active: 9.2 µM"},
      {"smiles": "COc1cccc(C2c3[nH]c4ccccc4c3C[C@H]3C(=O)N(CCCOC(C)C)CC(=O)N23)c1", "note": "(stereo partly drawn)", "Potency": "inactive"},
      {"smiles": "Cc1nn(C)c(C)c1S(=O)(=O)N1CCC(CO)(Cc2ccc(Cl)cc2)CC1", "Potency": "inconclusive: 16.4 µM [cytotoxic, partial curve]"},
      {"smiles": "CCOC(=O)c1c(S(=O)(=O)N2CCN(c3ccc(C(C)=O)cc3)CC2)c(C)n(C)c1C", "Potency": "inconclusive: 0.0082 µM [rising, full curve, poor fit]"},
      {"smiles": "N#Cc1cccc(NS(=O)(=O)c2ccccc2Cl)c1", "Potency": "inconclusive: 29.1 µM [cytotoxic, single point]"},
      {"smiles": "CC(Sc1nc2ccccc2c(=O)n1CC1CCCO1)C(=O)NC(C)c1ccccc1", "note": "(stereo not drawn)", "Potency": "inactive"},
      {"smiles": "COc1ccc(CCNc2nc(C)nc3c2oc2ccccc23)cc1OC", "Potency": "active: 16.4 µM"},
      {"smiles": "Clc1ccc(SCCOCCN2CCc3ccccc3C2)cc1", "Potency": "inactive"},
      {"smiles": "COC(=O)CN1C(=O)[C@H]2[C@@H](c3ccc(C)o3)N3C(=O)CN(Cc4ccccn4)C(=O)[C@@]3(Cc3ccccc3)[C@H]2C1=O", "Potency": "inconclusive: 29.1 µM [rising, single point]"},
      {"smiles": "O=C(NCc1ccc(F)cc1)c1noc2c1CCCCC2", "Potency": "active: 16.4 µM"},
      {"smiles": "CCCCNC(=O)Cc1coc2ccc3ccccc3c12", "Potency": "inactive"},
      {"smiles": "CCCNC(=O)c1ccc(CN2CCc3ccccc3C2)cc1", "Potency": "inconclusive: 16.4 µM [cytotoxic, partial curve, poor fit]"},
      {"smiles": "Cc1cc(Nc2ccc3ccccc3c2)n2ncnc2n1", "Potency": "inconclusive: 32.6 µM [cytotoxic, single point]"},
      {"smiles": "Cc1ccc(CN2CCCn3nc(C(=O)NCc4ccc(N(C)C)cc4)cc3C2=O)cc1", "Potency": "inconclusive: 25.9 µM [cytotoxic, single point]"},
      {"smiles": "Cc1nc2ccccn2c1C(=O)CSc1ccccc1", "Potency": "inactive"},
      {"smiles": "O=c1oc2ccccc2c(NCc2ccc(Cl)cc2)c1[N+](=O)[O-]", "Potency": "inconclusive: 32.6 µM [cytotoxic, partial curve, poor fit]"},
      {"smiles": "CC(NNC(=S)N1CCCCCC1)c1ccc2ccccc2n1", "note": "(stereo not drawn)", "Potency": "inactive"},
      {"smiles": "O=C(Nc1ccccc1-c1nc2ccccc2s1)c1ccc(F)cc1", "Potency": "inconclusive: 16.4 µM [rising, single point]"},
      {"smiles": "Clc1ccc(-c2cc3ncc4c(n3n2)-c2ccccc2OC4)cc1", "Potency": "inconclusive: 29.1 µM [rising, single point]"},
      {"smiles": "COc1cc(NC(=O)c2ccco2)c(OC)cc1NC(=O)CCC(=O)Nc1cccc(C)c1C", "Potency": "inconclusive: 1.84 µM [cytotoxic, full curve]"},
      {"smiles": "CN(C)c1cccc2c1c(NC(=O)Nc1ccc(Cl)cc1Cl)nn2C", "Potency": "inconclusive: 9.2 µM [cytotoxic, partial curve, poor fit]"},
      {"smiles": "O=C(NN1CCOCC1)c1cccc(Cl)c1", "Potency": "inconclusive: 29.1 µM [rising, single point]"},
      {"smiles": "O=C(CO/N=C/c1ccccc1O)N1CCc2ccccc21", "Potency": "active: 13 µM"},
      {"smiles": "c1ccc(N2CCN(c3nc4ccccc4n4cnnc34)CC2)cc1", "Potency": "inconclusive: 29.1 µM [cytotoxic, single point]"},
      {"smiles": "Cc1cnc2c(C)cccc2c1C", "Potency": "inactive"},
      {"smiles": "CCN(CC1CCCO1)C(=O)CCc1nnc(Cc2ccc3c(c2)OCO3)o1", "note": "(stereo not drawn)", "Potency": "inactive"}
    ]}
  ]
}
